# In all, about 1,700 compounds were measured (“T2 sensor activation Q score (MG/GFP ratio z-score vs DMSO controls)”: median about 0.3, highest 2% from about 1.9 on). The list shows a part of the results.
# Tested on: ppGalNAc-T2 sensor
# Assay: T2 sensor activation Q score (MG/GFP ratio z-score vs DMSO controls) (SD units); higher = more sensor activation (inhibition of ppGalNAc-T2 glycosylation)
# Conditions: HEK293 sensor cells; 10 µM; 6 h
# Description: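 Cells were treated with compound at 10 uM for 6 h, then MG/GFP ratio was read by flow cytometry (10,000 cells per well, duplicate wells). Q = (R - R_neg)/SD_neg relative to DMSO vehicle controls; the signal rises when the glycosyltransferase is inhibited.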
row,SMILES,T2 sensor activation Q score
1,Oc1ccc(NC(=S)Nc2ccccc2)cc1,-0.9
2,CC1(CN2CCCC2)CCC(NC(=O)C(c2ccccc2)c2ccccc2)C(C)(C)O1 (configuration not stated),0.2
3,C#CC(C)OCC1CNC(=S)O1 (configuration not stated),-1.4
4,O=C(Nc1ccc(Nc2ccncc2)cc1)c1ccc(Nc2ccnc3ccc([N+](=O)[O-])cc23)cc1[N+](=O)[O-],-0.05
5,Cc1ccc([S+]([O-])c2ccc([N+](=O)[O-])c3nonc23)cc1 (configuration not stated),1.1
6,O=C(O)c1cccc2c1C(=O)c1cccc3snc-2c13,1.8
7,S=c1cn[nH]c2ccccc12,0.55
8,CCOC(=O)C(Cc1ccc(O)cc1)Nc1nc2ccccc2o1 (configuration not stated),1.75
9,Nc1nc2nn(-c3ccccc3)nc2c(=O)[nH]1,0.8
10,Clc1ccccc1-c1nc2ccccc2[nH]1,0.9
11,CCCCNc1cc(Cl)nc(N)n1,-0.65
12,COc1cc(N=Nc2cccc(S(N)(=O)=O)c2)c2ccccc2c1N,-2.9
13,CC(OC(=O)Nc1cccc(Cl)c1)C(=O)O (configuration not stated),1.1
14,CC(=O)Nc1ccc(Cc2nc3c([nH]2)c(=O)n(C)c(=O)n3C)cc1,0.6
15,CN(C)CCC1c2ccc(Cl)cc2CCc2cccnc21 (configuration not stated),-0.05
16,O=C(Nc1ccc(Cl)c(Cl)c1)c1ccc(Cl)c(Cl)c1,-1.6
17,COc1cc2c(cc1OC)C(/C=C/c1ccco1)=NCC2,1.1
18,CC1(C)O[C@H]2CC(=O)OC[C@]23[C@H]2CC[C@@]4(C)[C@H](c5ccoc5)OC(=O)[C@H]5O[C@]54[C@]2(C)C(=O)C[C@@H]13,-0.4
19,Cc1[nH]c(N=Nc2ccccc2)nc1N=Nc1ccccc1,-0.25
20,O=C(Nc1ccc(NC(=O)c2ccncc2)cc1)c1ccncc1,-0.5
21,CCOc1ccc(NC(=S)NC(=O)c2ccco2)cc1,0.15
22,CN(N=O)C(=O)N[C@@H]1[C@@H](O)[C@H](O)[C@@H](CO)O[C@@H]1O,-0.2
23,CC1CC=C(O)C12OCC(C)(C)CO2 (configuration not stated),-2.3
24,COC(=O)C1=C(C(=O)OC)[C@@H]2CCC[C@H]1[C@H]1[C@@H]2N=NN1c1ccccc1,-1.4

row,SMILES,T2 sensor activation Q score
1,COCC(O)Cn1ccnc1[N+](=O)[O-] (configuration not stated),0.55
2,C#Cc1cccc(Nc2ncnc3cc(OCCOC)c(OCCOC)cc23)c1,0.75
3,O=C1OCC/C1=C\c1ccc2c(c1)OCO2,0.9
4,O=C(/C=C/c1cccnc1)c1ccccc1O,1.75
5,CC1(C)CCCC2(C)C(OCCO)=CC(=O)C=C12 (configuration not stated),-0.45
6,COc1ccccc1N1C(=O)CC(Sc2ccccc2N)C1=O (configuration not stated),0.2
7,CO[C@H](C(=O)[C@@H](O)[C@@H](C)O)[C@@H]1Cc2cc3cc(O[C@H]4C[C@@H](O[C@H]5C[C@@H](O)[C@H](O)[C@@H](C)O5)[C@H](O)[C@@H](C)O4)c(C)c(O)c3c(O)c2C(=O)[C@H]1O[C@H]1C[C@@H](O[C@H]2C[C@@H](O[C@H]3C[C@](C)(O)[C@H](O)[C@@H](C)O3)[C@@H](O)[C@@H](C)O2)[C@H](O)[C@@H](C)O1,-0.7
8,NC(=O)c1nc2c([nH]c1=O)CCCC2,-0.85
9,CC(=O)/C=C(\C)Nc1ccccc1O,0.55
10,O=C(O)/C=C\c1cc2c(cc1[N+](=O)[O-])OCO2,0.4
11,O=C1NCN(CCO)CN1,1.55
12,Cc1csc(NC(=O)c2ccc(C(=O)Nc3nc(C)cs3)cc2)n1,0.5
13,O=C(c1ccccc1)C1N=NCC1c1ccc(Cl)cc1 (configuration not stated),0.05
14,CC(=O)OCCn1c([N+](=O)[O-])cnc1/C=[N+](\[O-])C1CCCCC1,-0.9
15,O=C(O)CCC1(c2ccccc2)NC(=O)NC1=O (configuration not stated),0.95
16,CC1(C)CC(=O)C(CC(=O)c2ccccc2)=C(NN=C(N)N)C1,-0.15
17,CN1N=C(N)c2cn([C@@H]3O[C@H](COP(=O)(O)O)[C@@H](O)[C@H]3O)c3ncnc1c23,1.15
18,Cn1ncc2c(Nc3cccc(Cl)c3)nc(Nc3cccc(Cl)c3)nc21,0.9
19,CC1=C2C3OC(=O)C(C)C3CCC2(C)C=C(Cl)C1=O (configuration not stated),0.95
20,O=C(NN1CCCCC1)NN1CCCCC1,1.5
21,Cc1cc(C)c2c(SC(C)C)nc(N)nc2n1,-0.45
22,Cc1c(C(C)(C(=O)O)c2c(C)n(C)c3ccccc23)c2ccccc2n1C,0.65
23,O=C(O)/C=C/C(=O)Nc1cccc2cccnc12,0.3
24,NNC(=O)c1nnsc1-c1csnn1,0.7

row,SMILES,T2 sensor activation Q score
1,OCc1nnn(-c2ccccc2)c1CO,0.8
2,Cc1ccc2c(c1)C(=C(C#N)C#N)CCN2,1.45
3,Clc1ncnc2[nH]ccc12,-1.5
4,CCCN(CCC)c1ccc(/C=C/c2ccc3cc(OCC)ccc3n2)cc1,-0.05
5,CN1C(=C=Cc2cc(I)c(O)c(I)c2)C(C)(C)c2ccccc21,3.65
6,O=C(CSc1nc2ccc([N+](=O)[O-])cc2s1)c1ccc2ccccc2c1,0.95
7,CC(=O)NC1(C(=O)O)CCCC1,-0.95
8,Nc1nc2ccc([N+](=O)[O-])cc2[nH]1,1.15
9,Nc1ccc(C(=O)Oc2ccc([N+](=O)[O-])cc2)cc1,1.55
10,C/C(=C\c1csc(C)n1)[C@@H]1C[C@@H]2O[C@]2(C)CCC[C@H](C)[C@H](O)[C@@H](C)C(=O)C(C)(C)[C@@H](O)CC(=O)N1,-0.5
11,c1cncc(-c2nc3ccccc3s2)c1,0.7
12,N#Cc1ccc(NC2c3ccccc3CC2O)cc1 (configuration not stated),-0.4
13,O=c1[nH]c(SCc2ccccc2[N+](=O)[O-])nc2nc[nH]c12,1.15
14,Cc1ccc(/C=C2\CCOC2=O)cc1,0.65
15,Nc1nc(=S)ss1,1.35
16,ClC(Cl)(Cl)C1=NCc2nnn(Cc3ccccc3)c2N1,1.2
17,CCOC(=O)c1[nH]c(C(=O)O)c(OC(=O)CC)c1C,1.3
18,Cc1ccc(NC(=O)c2ccc(CN3CCN(C)CC3)cc2)cc1Nc1nccc(-c2cccnc2)n1,-0.45
19,COc1cc2c(Nc3ccc(Br)cc3F)ncnc2cc1OCC1CCN(C)CC1,-1.7
20,COc1ccccc1NC(=O)c1cc2ccccc2cc1O,0.8
21,Nc1n[nH]c(=S)n1-c1ccc(Cl)cc1,0.8
22,CCCCCc1cccnc1,1.75
23,O=Cc1c[nH]c2ncccc12,1.2
24,C#CCSc1n[nH]c(-c2ccco2)n1,1.7

# Reformatted tab-delimited: part of the list above
row	SMILES	T2 sensor activation Q score
20	COc1ccccc1NC(=O)c1cc2ccccc2cc1O	0.8
21	Nc1n[nH]c(=S)n1-c1ccc(Cl)cc1	0.8

# Additional compounds follow:

row,SMILES,T2 sensor activation Q score
1,c1ccc(CSc2nc3ncncc3[nH]2)cc1,1.1
2,Cc1cc2cc3c(=O)[nH]c(=O)cc-3n(CC(O)C(O)C(O)CO)c2cc1C (configuration not stated),0.65
3,FC(F)(F)c1cccc(OCC2CNC(=S)O2)c1 (configuration not stated),0.65
4,C1C2CC3C1C3/C2=N\N=C1/C2CC3C(C2)C13,0.3
5,O=C(O)CCC(=O)OCCN(Cc1ccc(Oc2ccc([N+](=O)[O-])cc2)cc1)C(=O)C(Cl)Cl,0.3
6,N#Cc1[nH]nc2nc[nH]c(=O)c12,-2.4
7,c1ccc2c(c1)Oc1cccc3cccc-2c13,1.3
8,CN(CC(=O)O)Cc1oc(CO)cc(=O)c1O,-0.15
9,Cc1cc(-c2ccc(N3C(=O)CC4(CCCC4)C3=O)c(C)c2)ccc1N1C(=O)CC2(CCCC2)C1=O,0.55
10,CCCCn1ccnc1C,1.65
11,O=[N+]([O-])c1cccnc1Oc1cccnc1,-0.5
12,CCOc1ccc(Nc2c3ccccc3nc3ccccc23)cc1,-2.1
13,CC1=C(/C=C/C(C)=C/C=C/C(C)=C/C(=O)O)C(C)(C)CCC1,-0.45
14,COc1ccc(/C(C#N)=C/c2ccccn2)cc1,-0.3
15,Cc1cc2nc(CS)[nH]c2cc1C,0.1
16,c1ccc(Sc2ncccn2)nc1,1.25
17,COc1ccc(C2C3=C(COC3=O)Oc3cc4c(cc32)OCO4)cc1OC (configuration not stated),1.15
18,CCCCN1C(=O)CC2CCOC21C (configuration not stated),-0.45
19,Nc1ccc(S(=O)(=O)NCC2CCCCO2)cc1 (configuration not stated),0
20,Cc1ccc(Nc2c(O)nc[nH]c2=O)cc1C,-0.15
21,COc1ccc2c(c1)c1ccc3c(c1n2C)C(=O)C=CC3=O,-0.6
22,CCOC(=O)Nc1ccc(C(=O)/C=C/c2ccccc2)cc1,0.6
23,O=C(CCl)NC1(C(=O)O)CCCC1,-0.45
24,C#Cc1cccc(NC(=O)c2ccc(Cl)cc2Cl)c1,0.95

row,SMILES,T2 sensor activation Q score
1,O=C(C(=O)c1cccnc1)c1cccnc1,1.55
2,O=[N+]([O-])c1cc(-c2cccnc2)n[nH]1,-0.35
3,Nc1ccn([C@@H]2O[C@H](CO)[C@@H](O)C2(F)F)c(=O)n1,-0.85
4,CO[C@H]1C[C@@H]2CC[C@@H](C)[C@@](O)(O2)C(=O)C(=O)N2CCCC[C@H]2C(=O)O[C@H]([C@H](C)C[C@@H]2CC[C@@H](OCCO)[C@H](OC)C2)CC(=O)[C@H](C)/C=C(\C)[C@@H](O)[C@@H](OC)C(=O)[C@H](C)C[C@H](C)/C=C/C=C/C=C/1C,-2.8
5,N#CCCCCN1CCCC1,-0.65
6,CC(=O)O[C@@]12CO[C@@H]1C[C@H](O)[C@@]1(C)C(=O)[C@H](O)C3=C(C)[C@@H](OC(=O)[C@H](O)[C@@H](NC(=O)OC(C)(C)C)c4ccccc4)C[C@@](O)([C@@H](OC(=O)c4ccccc4)[C@H]21)C3(C)C,-0.4
7,CC(C)=NNc1ncnc2nc[nH]c12,1.25
8,CCC/C(C)=C/c1ccc(CC)cn1,-0.95
9,Cc1ccccc1NC(=O)Oc1cccc(OC(=O)c2ccccc2)c1,0.7
10,CC1(c2ccc3ccccc3c2)CCC(=O)O1 (configuration not stated),0.05
11,CCCCCc1cc(=O)[nH]c(=S)[nH]1,-1.65
12,COC1OC(CO)C(N=C(C)C)C1O (configuration not stated),0.95
13,Nc1cccc2c1C(=O)N(C1CCC(=O)NC1=O)C2=O (configuration not stated),-1.1
14,O=c1nc2onnc2c(/C=N\O)[nH]1,1.25
15,CC(C)(C)C(=O)/C=C/c1ccc(Oc2ccccc2)cc1,-1.6
16,NC(=O)Cc1ccc2c(c1)[nH]c1ccccc12,0.15
17,O=c1cc2oc3cc(O)c(O)cc3c(-c3ccccc3O)c-2cc1O,-3.75
18,C=CCOc1c(CCC)cc(CCC)cc1C(N)=O,1.5
19,Cc1ccc(CC#N)c(-c2c(CC#N)ccc(C)c2C)c1C,0.85
20,CCC(CC)c1ncc[nH]1,0.65
21,CC(C)=CCC/C(C)=C\C(N)=O,0.55

# 2 successive compounds out of the list so far, quoted:
row,SMILES,T2 sensor activation Q score
15,CC(C)(C)C(=O)/C=C/c1ccc(Oc2ccccc2)cc1,-1.6
16,NC(=O)Cc1ccc2c(c1)[nH]c1ccccc12,0.15

# From the supplement of paper PMC5407854, “Inhibitor of ppGalNAc-T3-mediated O-glycosylation blocks cancer cell invasiveness and lowers FGF23 levels” (eLife, 2017)
